Measurements reported in US20240287457A1, “COMPOSITIONS AND CELL CULTURE MEDIA FOR INCREASING NEUTROPHIL LIFESPAN” (THE CHILDREN'S MEDICAL CENTER CORPORATION, priority 2021, published 2024).
Some results were stated once for a whole list of compounds, not compound by compound.

Test system: neutrophils
Experiment: Neutrophil lifespan with additional pan caspase inhibitors (data not shown)
Format: cell-based
Settings: combined with Hsp70, NAC and G-CSF, species not stated

CC(=O)N[C@@H](CC(=O)O)C(=O)N[C@@H](CCC(=O)O)C(=O)N[C@H](C(=O)N[C@H](C=O)CC(=O)O)C(C)C [Ac-DEVD-CHO, (4S,7S,10S,13S)-7-(2-carboxyethyl)-4-(carboxymethyl)-13-formyl-10-isopropyl-2,5,8,11-tetraoxo-3,6,9,12-tetraazapentadecan-15-oic acid]
neutrophils survived after culturing for 3 days: over 700
